# Data from the supplement of paper PMC8728848.
# This is one part of the list.
# B1: Mincle (Bos taurus) (protein)
# chain: MNSSTSPASQTERRCFSFQLFSWAIAGTSILLLSACFITRCVVTYSIFQLCDEKKFQPPGDSMELSCYNDGSGSVKNCCPLKWFHFQSSCYLFSPDTMSWRASLKNCSSMGAHLVVINTQEEQEFLYYTKPRKKEFYIGLTDQVTEGQWQWVDGTPFTKSLSFWDAGEPNNLVIVEDCATIRDSSNPRQNWNDVPCFFNMFRVCEMPERKI
# Tests used:
# Experiment in all cases: glycan array binding signal (z-score within array); higher = stronger binding
# Conditions in all cases: glycan notation: IUPAC condensed, linker removed
# Gal3S(b1-4)Glc = molecular target: Gal3S(b1-4)Glc
# In short: (§1)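 Columns mapping to the same glycan were averaged after glycan names were converted to IUPAC-condensed notation. The data come from 3228 arrays in the Consortium for Functional Glycomics database, limited to those with an available protein sequence. Binding is reported as a within-array Z-score averaged across arrays of one protein sequence and across linkers.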
# Gal3S(b1-4)Glc6S = molecular target: Gal3S(b1-4)Glc6S
# In short: as §1
# Gal3S(b1-4)GlcNAc = molecular target: Gal3S(b1-4)GlcNAc
# In short: as §1
# [1] = molecular target: Gal3S(b1-4)[Fuc(a1-3)]Glc6S
# In short: as §1
# [2] = molecular target: Gal3S(b1-4)[Fuc(a1-3)]GlcNAc
# In short: as §1
# [3] = molecular target: Gal3S(b1-4)[Fuc(a1-3)]GlcNAc6S
# In short: as §1
# Gal3S4S(b1-4)GlcNAc = molecular target: Gal3S4S(b1-4)GlcNAc
# In short: as §1
# Gal3S6S(b1-4)GlcNAc = molecular target: Gal3S6S(b1-4)GlcNAc
# In short: as §1
# Gal3S6S(b1-4)GlcNAc6S = molecular target: Gal3S6S(b1-4)GlcNAc6S
# In short: as §1
# Gal4S(b1-4)GlcNAc = molecular target: Gal4S(b1-4)GlcNAc
# In short: as §1
# Gal4S6S(b1-4)GlcNAc = molecular target: Gal4S6S(b1-4)GlcNAc
# In short: as §1
# Gal6P(b1-4)GlcNAc = molecular target: Gal6P(b1-4)GlcNAc
# In short: as §1
# Gal6S(b1-3)GlcNAc = molecular target: Gal6S(b1-3)GlcNAc
# In short: as §1
# Gal6S(b1-3)GlcNAc6S = molecular target: Gal6S(b1-3)GlcNAc6S
# In short: as §1
# Gal6S(b1-4)Glc = molecular target: Gal6S(b1-4)Glc
# In short: as §1
# Gal6S(b1-4)Glc6S = molecular target: Gal6S(b1-4)Glc6S
# In short: as §1
# Gal6S(b1-4)GlcNAc = molecular target: Gal6S(b1-4)GlcNAc
# In short: as §1
# Gal6S(b1-4)GlcNAc6S = molecular target: Gal6S(b1-4)GlcNAc6S
# In short: as §1
# GalNAc(a1-3)Gal = molecular target: GalNAc(a1-3)Gal
# In short: as §1
# GalNAc(a1-3)GalNAc = molecular target: GalNAc(a1-3)GalNAc
# In short: as §1
# [4] = molecular target: GalNAc(a1-3)GalNAc(b1-3)Gal(a1-4)Gal(b1-4)Glc
# In short: as §1
# [5] = molecular target: GalNAc(a1-3)GalNAc(b1-3)Gal(a1-4)Gal(b1-4)GlcNAc
# In short: as §1
# GalNAc(b1-3)Gal = molecular target: GalNAc(b1-3)Gal
# In short: as §1
# [6] = molecular target: GalNAc(b1-3)Gal(a1-4)Gal(b1-4)GlcNAc
# In short: as §1
# [7] = molecular target: GalNAc(b1-3)Gal(a1-4)Gal(b1-4)GlcNAc(b1-3)Gal(b1-4)Glc
# In short: as §1
# [8] = molecular target: GalNAc(b1-3)Gal(a1-6)Gal(b1-4)Glc
# In short: as §1
# GalNAc(b1-3)GalNAc = molecular target: GalNAc(b1-3)GalNAc
# In short: as §1
# GalNAc(b1-3)GlcNAc = molecular target: GalNAc(b1-3)GlcNAc
# In short: as §1
# GalNAc(b1-4)Gal(b1-4)Glc = molecular target: GalNAc(b1-4)Gal(b1-4)Glc
# In short: as §1
# GalNAc(b1-4)GlcNAc = molecular target: GalNAc(b1-4)GlcNAc
# In short: as §1
# [9] = molecular target: GalNAc(b1-4)GlcNAc(b1-2)Man
# In short: as §1
# [10] = molecular target: GalNAc(b1-4)GlcNAc(b1-2)Man(a1-3)[GalNAc(b1-4)GlcNAc(b1-2)Man(a1-6)]Man(b1-4)GlcNAc(b1-4)GlcNAc
# In short: as §1
# [11] = molecular target: GalNAc(b1-4)GlcNAc(b1-3)GalNAc(b1-4)GlcNAc
# In short: as §1
# GalNAc(b1-4)GlcNAc6S = molecular target: GalNAc(b1-4)GlcNAc6S
# In short: as §1
# GalNAc(b1-6)GalNAc = molecular target: GalNAc(b1-6)GalNAc
# In short: as §1
# GalNAc3S(b1-4)GlcNAc = molecular target: GalNAc3S(b1-4)GlcNAc
# In short: as §1
# GalNAc3S(b1-4)GlcNAc3S = molecular target: GalNAc3S(b1-4)GlcNAc3S
# In short: as §1
# [12] = molecular target: GalNAc3S(b1-4)[Fuc(a1-3)]GlcNAc
# In short: as §1
# GalNAc4S6S(b1-4)GlcNAc = molecular target: GalNAc4S6S(b1-4)GlcNAc
# In short: as §1
# GalNAc6S(b1-4)GlcNAc = molecular target: GalNAc6S(b1-4)GlcNAc
# In short: as §1
# Glc(a1-4)Glc = molecular target: Glc(a1-4)Glc
# In short: as §1
# [13] = molecular target: Glc(a1-4)Glc(a1-4)Glc(a1-4)Glc
# In short: as §1
# Glc(a1-6)Glc(a1-6)Glc = molecular target: Glc(a1-6)Glc(a1-6)Glc
# In short: as §1
# [14] = molecular target: Glc(a1-6)Glc(a1-6)Glc(a1-6)Glc
# In short: as §1
# Glc(b1-4)Glc = molecular target: Glc(b1-4)Glc
# In short: as §1
binder,measurement,setting,value
B1,glycan array binding signal (z-score),Gal3S(b1-4)Glc,-0.057
same,glycan array binding signal (z-score),Gal3S(b1-4)Glc6S,-0.359
same,glycan array binding signal (z-score),Gal3S(b1-4)GlcNAc,-0.819
same,glycan array binding signal (z-score),[1],1.34
same,glycan array binding signal (z-score),[2],0.049
same,glycan array binding signal (z-score),[3],-0.084
same,glycan array binding signal (z-score),Gal3S4S(b1-4)GlcNAc,-1.45
same,glycan array binding signal (z-score),Gal3S6S(b1-4)GlcNAc,-0.018
same,glycan array binding signal (z-score),Gal3S6S(b1-4)GlcNAc6S,-0.175
same,glycan array binding signal (z-score),Gal4S(b1-4)GlcNAc,-1.55
same,glycan array binding signal (z-score),Gal4S6S(b1-4)GlcNAc,-0.69
same,glycan array binding signal (z-score),Gal6P(b1-4)GlcNAc,-0.035
same,glycan array binding signal (z-score),Gal6S(b1-3)GlcNAc,-0.342
same,glycan array binding signal (z-score),Gal6S(b1-3)GlcNAc6S,-0.278
same,glycan array binding signal (z-score),Gal6S(b1-4)Glc,-0.119
same,glycan array binding signal (z-score),Gal6S(b1-4)Glc6S,-0.107
same,glycan array binding signal (z-score),Gal6S(b1-4)GlcNAc,-0.285
same,glycan array binding signal (z-score),Gal6S(b1-4)GlcNAc6S,-0.584
same,glycan array binding signal (z-score),GalNAc(a1-3)Gal,-1.18
same,glycan array binding signal (z-score),GalNAc(a1-3)GalNAc,0.166
same,glycan array binding signal (z-score),[4],0.275
same,glycan array binding signal (z-score),[5],-0.57
same,glycan array binding signal (z-score),GalNAc(b1-3)Gal,-0.19
same,glycan array binding signal (z-score),[6],0.003
same,glycan array binding signal (z-score),[7],0.197
same,glycan array binding signal (z-score),[8],-1.02
same,glycan array binding signal (z-score),GalNAc(b1-3)GalNAc,0.381
same,glycan array binding signal (z-score),GalNAc(b1-3)GlcNAc,-0.818
same,glycan array binding signal (z-score),GalNAc(b1-4)Gal(b1-4)Glc,0.029
same,glycan array binding signal (z-score),GalNAc(b1-4)GlcNAc,-0.149
same,glycan array binding signal (z-score),[9],-1.53
same,glycan array binding signal (z-score),[10],-0.279
same,glycan array binding signal (z-score),[11],-1.15
same,glycan array binding signal (z-score),GalNAc(b1-4)GlcNAc6S,-1.24
same,glycan array binding signal (z-score),GalNAc(b1-6)GalNAc,-0.574
same,glycan array binding signal (z-score),GalNAc3S(b1-4)GlcNAc,-0.525
same,glycan array binding signal (z-score),GalNAc3S(b1-4)GlcNAc3S,-0.009
same,glycan array binding signal (z-score),[12],-0.127
same,glycan array binding signal (z-score),GalNAc4S6S(b1-4)GlcNAc,-0.124
same,glycan array binding signal (z-score),GalNAc6S(b1-4)GlcNAc,-1.07
same,glycan array binding signal (z-score),Glc(a1-4)Glc,-0.009
same,glycan array binding signal (z-score),[13],-0.197
same,glycan array binding signal (z-score),Glc(a1-6)Glc(a1-6)Glc,-0.196
same,glycan array binding signal (z-score),[14],-0.241
same,glycan array binding signal (z-score),Glc(b1-4)Glc,-0.39

# Another view of some results above.
binder | measurement | setting | value
B1 | glycan array binding signal (z-score) | GalNAc(b1-3)GlcNAc | -0.818
same | glycan array binding signal (z-score) | GalNAc(b1-4)Gal(b1-4)Glc | 0.029
